The values that follow come from PubChem BioAssay (NCATS).

Experiment [1] is described as follows: qHTS assay for small molecule antagonists of peroxisome proliferator-activated receptor gamma signaling (AID 588537). The conditions noted are these: HEK293 PPARg-UAS-bla, beta-lactamase ratio, antagonist mode; measured here: W460 blue channel. The method in brief: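 PPAR-gamma-UAS-bla HEK293 cells (3000/well, 1% charcoal/dextran-stripped FBS) were preincubated 6-6.5 h at 37 C, given titrated compounds, then stimulated with 50 nM rosiglitazone for 16 h. Beta-lactamase activity was read with CCF4 dye; IC50 came from Hill fits.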

Experiment [2] is described as follows: qHTS assay for small molecule agonists of retinoid X receptor alpha signaling (AID 588544). The note with it: HEK293T RXRa-UAS-bla, beta-lactamase reporter, 18 h; 530 nm emission.
The nature of experiment [3]: S16 Schwann cell PMP22 intronic element beta-lactamase assay (AID 624044). The note with it: S16 rat Schwann cells, PMP22 element beta-lactamase FRET, 24 h. The method in brief: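 Rat S16 Schwann cells with beta-Lac driven by a PMP22 intronic element, compound-treated 24 h at 37 °C. LiveBLAzer FRET B/G read: 460 nm normalized to potassium clavulanate vs DMSO; 535 nm FRET as viability; concentration-effect curves classified.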

[4] abbreviates: measured here: 460 nm blue channel.

SMILES strings stand for the structures. Values joined by “and” are separate entries in the source; they are usually repeats but may differ in a detail not shown here. Identical values can stand only once. The list shows a part of the results. The main result of the screen is listed elsewhere. These columns were measured beside it and carry no call. Most of these compounds were active or inconclusive in the main read-out, so they are no random draw. For some assays here: The note in brackets gives the kind of curve behind each potency; many fits are weak.

On to `c1ccc(OP(Oc2ccccc2)Oc2ccccc2)cc1`, for which, in experiment [1], the concentration at half-maximal activity (AC50) is 70.8 µM [rising, single point].

On to `CCOP(=O)(NC(C)C)Oc1ccc(S(C)=O)c(C)c1` (stereo not drawn), for which the AC50 in experiment [1] was 0.00112 µM [falling, full curve, poor fit].

On to `Cc1ccc(N=C=O)cc1N=C=O`, for which, in experiment [1], the half-maximal activity concentration (AC50) was 39.8 µM [falling, partial curve, poor fit].

Turning to `CS(=O)(=O)NC(=O)c1cc(Oc2ccc(C(F)(F)F)cc2Cl)ccc1[N+](=O)[O-]`, in experiment [1], the half-maximal activity concentration (AC50) was 0.631 µM [falling, full curve, poor fit].

As for `COc1ccc(O)c(C(C)(C)C)c1`, the AC50 in experiment [1] is 0.0316 µM [falling, full curve, poor fit].

With `Cc1ccc(N)cc1N`, the AC50 in experiment [1] is 0.0891 µM [rising, full curve, poor fit].

Consider `COc1ccc(C)cc1N`, for which the AC50 in experiment [1] was 50.1 µM [rising, single point].

With `O=C(O)c1cc(Cl)ccc1Cl`, the concentration at half-maximal activity (AC50) in experiment [1] was 63.1 µM [rising, single point].

As for `Clc1cccc(Cl)c1`, the AC50 in experiment [1] is 70.8 µM [rising, single point].

Regarding `[O-][Cl+2]([O-])O`, the concentration at half-maximal activity (AC50) in experiment [1] is 44.7 µM [rising, single point].

Turning to `CC(C)CON=O`, in experiment [1], the concentration at half-maximal activity (AC50) is 50.1 µM [rising, single point].

On to `Cc1ccc(C)c2ccccc12`, for which the AC50 in experiment [1] is 0.00251 µM [falling, full curve, poor fit].

On to `Clc1nc(Cl)nc(Cl)n1`, for which the half-maximal activity concentration (AC50) in experiment [1] was 50.1 µM [rising, single point] and 1.26 nM [falling, full curve, poor fit].

For the compound `Cc1ccc(N)cc1C`, the concentration at half-maximal activity (AC50) in experiment [1] was 44.7 µM [rising, single point].

With `O=S(=O)(Cl)c1ccccc1`, the concentration at half-maximal activity (AC50) in experiment [1] was 50.1 µM [rising, single point]. Moreover, in experiment [2], the max response worked out at 35.5%.

Take `Nc1ccc([N+](=O)[O-])cc1O`: the concentration at half-maximal activity (AC50) in experiment [1] is 15.8 µM [falling, single point] and 56.2 µM [falling, partial curve, poor fit].

As for `O=P(Oc1ccccc1)(Oc1ccccc1)Oc1ccccc1`, in experiment [1], the half-maximal activity concentration (AC50) was 31.6 µM [falling, partial curve, poor fit]. Moreover, the max response in experiment [2] is 2.99%.

Turning to `COc1cc(OC)c(OC)cc1C=O`, the half-maximal activity concentration (AC50) in experiment [1] was 50.1 µM [rising, single point]. In addition, in experiment [2], the max response turned out to be 22%.

Regarding `O=C(O[C@@H]1Cc2c(O)cc(O)cc2O[C@@H]1c1cc(O)c(O)c(O)c1)c1cc(O)c(O)c(O)c1`, in experiment [1], the AC50 is 0.00126 µM [falling, full curve, poor fit].

With `c1ccc(N=Nc2ccccc2)cc1`, the half-maximal activity concentration (AC50) in experiment [1] is 50.1 µM [rising, single point].

Take `NS(=O)(=O)C(F)(F)C(F)(F)C(F)(F)C(F)(F)C(F)(F)C(F)(F)C(F)(F)C(F)(F)F`: the AC50 in experiment [1] is 50.1 µM [falling, partial curve, poor fit]. The max response in experiment [2] was -0.516%.

`Cc1ccc(OP(=O)(Oc2ccc(C)cc2)Oc2ccc(C)cc2)cc1`: the concentration at half-maximal activity (AC50) in experiment [1] was 50.1 µM [rising, single point]. Besides, the max response in experiment [2] was 1.29%.

On to `CCOP(=S)(OCC)Oc1ncn(-c2ccccc2)n1`, for which the AC50 in experiment [1] was 0.00126 µM [falling, full curve, poor fit].

With `Nc1ncc([N+](=O)[O-])s1`, the AC50 in experiment [1] is 70.8 µM [rising, single point].

Consider `CC1(C(=O)Nc2ccc(O)c(Cl)c2Cl)CCCCC1`, for which the AC50 in experiment [1] was 0.0112 µM [falling, full curve, poor fit].

For the compound `CN(C)[C@@H]1C(=O)C(C(N)=O)=C(O)[C@@]2(O)C(=O)C3=C(O)c4c(O)cccc4[C@@](C)(O)[C@H]3[C@H](O)[C@@H]12`, the AC50 in experiment [1] is 44.7 µM [rising, single point].

Regarding `O=C(Cl)OCc1ccccc1`, in experiment [1], the concentration at half-maximal activity (AC50) was 63.1 µM [rising, single point].

Regarding `O=C(O)CC(O)(CC(=O)O)C(=O)O`, the AC50 in experiment [1] is 0.0282 µM [falling, full curve, poor fit].

As to `ClC=C(Cl)Cl`, the AC50 in experiment [3] (setting [4]) was 25.1 µM [rising, single point].

Turning to `COP(=S)(OC)Oc1ccc(Sc2ccc(OP(=S)(OC)OC)cc2)cc1`, the concentration at half-maximal activity (AC50) in experiment [3] (setting [4]) is 5.01 µM [falling, full curve, poor fit].

With `CCOP(=O)(OCC)O/C(=C/Cl)c1ccc(Cl)cc1Cl`, in experiment [3] (setting [4]), the AC50 is 0.0562 µM [falling, full curve, poor fit].

Take `CC[n+]1c(-c2ccccc2)c2cc(N)ccc2c2ccc(N)cc21`: the half-maximal activity concentration (AC50) in experiment [3] (setting [4]) was 1.26 µM [falling, full curve, poor fit] and 6.31 µM [falling, partial curve, poor fit]; in experiment [3] (measured here: 530 nm viability channel), 1.26 µM [falling, full curve].
